Assay results reported in PMC6925144, “A prospective compound screening contest identified broader inhibitors for Sirtuin 1” (Scientific Reports, 2019).
Over roughly 3,200 compounds, “TSA(with NAD+) / Primary screening (TSA) / delta Tm (K)” has its median near -0.04; the highest 2% begin near 0.37. The list shows a part of the results.

By UniProt entry, the sequences of proteins in these tests, tags left out. Residues count along the entry.
UniProt Q96EB6, 2-747 limits assumed: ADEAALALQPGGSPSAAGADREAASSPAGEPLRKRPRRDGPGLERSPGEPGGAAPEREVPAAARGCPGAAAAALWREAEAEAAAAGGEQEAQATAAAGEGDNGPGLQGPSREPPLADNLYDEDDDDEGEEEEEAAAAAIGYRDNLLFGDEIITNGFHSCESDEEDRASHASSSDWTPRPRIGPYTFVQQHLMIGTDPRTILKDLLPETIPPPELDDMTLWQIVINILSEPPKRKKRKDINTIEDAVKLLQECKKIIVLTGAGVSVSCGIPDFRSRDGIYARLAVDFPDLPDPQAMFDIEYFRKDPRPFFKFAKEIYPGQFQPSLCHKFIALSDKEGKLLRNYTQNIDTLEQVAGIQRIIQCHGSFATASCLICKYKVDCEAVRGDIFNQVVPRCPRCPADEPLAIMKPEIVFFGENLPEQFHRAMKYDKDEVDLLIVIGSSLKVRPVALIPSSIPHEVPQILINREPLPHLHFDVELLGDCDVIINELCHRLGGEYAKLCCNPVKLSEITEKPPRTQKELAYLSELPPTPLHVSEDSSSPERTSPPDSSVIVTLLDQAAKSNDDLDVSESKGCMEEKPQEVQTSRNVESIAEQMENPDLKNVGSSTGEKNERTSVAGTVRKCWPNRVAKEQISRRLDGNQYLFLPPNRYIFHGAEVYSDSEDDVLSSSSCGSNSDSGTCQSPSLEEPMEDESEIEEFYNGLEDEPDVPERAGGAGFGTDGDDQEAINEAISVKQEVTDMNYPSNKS

biological target: NAD-dependent deacetylase Sirtuin 1 (human, UniProt Q96EB6); test: primary screen, delta tm; design: single well (n = 1, as 'the same TSA'); settings: 10 µM

| SMILES | TSA(with NAD+) / Primary screening (TSA) / delta Tm (K) |
| --- | --- |
| NC1CCCCC1N (stereo not shown) | -0.18 |
| COC(=O)c1ccc(C2C(C(=O)c3sc(C)nc3C)=C(O)C(=O)N2CCN2CCOCC2)cc1 (stereo not shown) | -0.09 |
| COc1ccc(N(Cc2ccc(C(N)=O)cc2)Cc2ccc(C(N)=O)cc2)cc1 | -0.11 |
| CS(=O)(=O)NN | -0.16 |
| O=C(CSc1nnc(NCc2ccco2)s1)Nc1nc(-c2ccc(F)cc2)cs1 | -0.09 |
| CC(CN)C1CC1 (stereo not shown) | -0.21 |
| Cc1cccc2nc(C(=O)Nc3nc(SCc4ccc(Cl)cc4)n[nH]3)cn12 | 0.11 |
| Cc1ccc(Cn2c(=O)c3ccccc3n3c(SCC4CCCCO4)nnc23)cc1 (stereo not shown) | -0.28 |
| CCS(=O)(=O)CCNC(=O)/C=C/c1cccc2ccccc12 | -0.13 |
| O=C(Nc1cccc(S(=O)(=O)N2CCOCC2)c1)c1ccccc1COc1ccccc1 | -0.09 |
| CC(C(=O)c1c[nH]c2ccccc12)N(C)CCOc1ccccc1F (stereo not shown) | -0.01 |
| Cc1cccc(Cc2cnc(NC(=O)c3ccc(COc4ccc5c(C)cc(=O)oc5c4)cc3)s2)c1 | -0.03 |
| N=c1nc[nH]c2c1ncn2CCC(N)=O | 0.08 |
| O=C(CCC(=O)c1ccccc1)Nc1ccccc1Cc1ccccc1 | -0.11 |
| C=CCOc1ccc(C2C(C(=O)c3ccc(C)o3)=C(O)C(=O)N2CCCN2CCOCC2)cc1 (stereo not shown) | -0.04 |
| O=C(NCc1nnc2ccccn12)c1cn(Cc2ccccc2)nc1-c1ccc(Cl)cc1 | -0.03 |
| CCC(=O)N1N=C(c2ccco2)CC1c1ccc(N(C)C)cc1 (stereo not shown) | -0.16 |
| CN(C)c1ccc([N+](=O)[O-])cn1 | 0.18 |
| N#Cc1ccccc1Sc1ccccc1C(=O)Nc1ccc(-c2cn3cccnc3n2)cc1 | -0.03 |
| O=C(O)CCn1cc(C=C2C(=O)NC(=S)NC2=O)c(-c2cccc(Br)c2)n1 | 0.06 |
| CC(OC(=O)c1cccc(S(=O)(=O)NCc2ccccc2)c1)C(=O)NC12CC3CC(CC(C3)C1)C2 (stereo not shown) | 0.16 |
| O=C(c1cnc2ccccc2n1)N1CCCC1c1nc2ccccc2s1 (stereo not shown) | -0.03 |
| O=C(O)C1CC(=O)N(c2ccc(S(=O)(=O)N3CCCc4cccc(F)c43)cc2)C1 (stereo not shown) | -0.03 |

| SMILES | TSA(with NAD+) / Primary screening (TSA) / delta Tm (K) |
| --- | --- |
| CC1CCN(C)c2ccccc2N1CCOc1ccc(S(N)(=O)=O)cc1 (stereo not shown) | -0.06 |
| CC(=O)N(C)CC(=O)NCC1CC2c3ccccc3C1c1ccccc12 (stereo not shown) | -0.11 |
| N#C/C(=C/c1ccc(-c2cc(Cl)ccc2Cl)o1)C(=O)Nc1cccc2ncccc12 | -0.18 |
| OC(CNCCc1c[nH]c2ccccc12)c1ccccc1 (stereo not shown) | -0.03 |
| CC(C)c1ccc(OCc2nnc(SCC(=O)Nc3ccccc3-c3ccccc3)n2N)cc1 | -0.11 |
| Cc1sc2ncnc(N3CCC(C(=O)N4CCC(C(N)=O)CC4)CC3)c2c1C | -0.03 |
| CCn1nc(C(=O)NC2CCCc3ccccc32)c2ccccc2c1=O (stereo not shown) | -0.23 |
| COc1ccccc1C(=O)NCC(=O)OCC(=O)Nc1ccc(C(N)=O)cc1 | 0.06 |
| Sc1ncnc2c1oc1ccccc12 | 0.06 |
| NC(=O)COC(=O)CC1Sc2ccc(C(F)(F)F)cc2NC1=O (stereo not shown) | -0.01 |
| CC1Oc2ccc(NC(=O)c3cccc(S(=O)(=O)N(C)c4ccccc4)c3)cc2NC1=O (stereo not shown) | 0.02 |
| CCc1cc2c(N3CCCC(c4cc(C(N)=O)[nH]n4)C3)ncnc2s1 (stereo not shown) | 0.06 |
| CC(C)CCCC(C)NC(=O)c1cc(-c2ccccc2)nc2c(C(N)=O)ncn12 (stereo not shown) | -0.01 |
| O=C(O)C1CC(=O)N(c2ccc(S(=O)(=O)Nc3ccc(F)c(F)c3)cc2)C1 (stereo not shown) | -0.18 |
| Cc1c(CCO)c(=O)n2c([nH]c3ccccc32)c1C#N | -0.03 |
| COc1ccc(/C=C2/COc3ccc(Br)cc3C2=O)c(OC)c1OC | -0.01 |
| Cc1cccc(C2NC(=O)c3ccccc3N2C)c1 (stereo not shown) | 0.18 |
| CC1CCc2c(sc3ncnc(N4CCCN(CC(N)=O)CC4)c23)C1 (stereo not shown) | -0.05 |
| CCOc1cc(/C=N/NC(=O)c2cc3c(s2)CCCC3)ccc1OCC(=O)Nc1cccc(C(F)(F)F)c1 | 1.05 |
| CC(C)(C)C(N)CN (stereo not shown) | -0.11 |
| CCCNCC | -0.11 |
| Cc1ccc2[nH]c3c(c2c1)CC(N1CC(CN)CC1C)CC3 (stereo not shown) | -0.16 |
| Cn1c(-c2ccccc2)c(C(=O)CC#N)c2ccccc21 | -0.05 |

Gathered by group: those above with a CF3 group (two)

| SMILES | TSA(with NAD+) / Primary screening (TSA) / delta Tm (K) |
| --- | --- |
| NC(=O)COC(=O)CC1Sc2ccc(C(F)(F)F)cc2NC1=O (stereo not shown) | -0.01 |
| CCOc1cc(/C=N/NC(=O)c2cc3c(s2)CCCC3)ccc1OCC(=O)Nc1cccc(C(F)(F)F)c1 | 1.05 |
